Test results from PubChem BioAssay AID485314 (National Center for Advancing Translational Sciences (NCATS), 2010).
In all, about 340,000 compounds went through this assay and about 4,500 (1.3%) were called active. Inconclusive results, whose numbers are uncertain, are shown with a selection of clear calls. Calls come from the whole dose curve; as a rule, active = well fitted inhibition curve with a large enough effect; inconclusive = small, poorly fitted or top-dose-only effect, or another doubt; inactive = no such curve, though single readings can be large or run the other way. Where the call is inconclusive, the potency comes from a doubtful curve fit.

biological target: DNA polymerase beta (Homo sapiens) (UniProt P06746); experiment: qHTS Assay for Inhibitors of DNA Polymerase Beta; conditions: Pol beta primer extension/strand displacement, fluorescence kinetic; activity change, negative = inhibition: at 114 µM (top of the series)
Procedure, shortened: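 Human Pol beta at 10 nM; strand-displacement substrate 50 nM final. Compound exposure 15 min at room temperature before start, reaction 10 min at room temperature.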
% is set by controls: 0 for no effect and ±100 for the full control effect; potency is the fitted concentration of half-maximal effect.

Compound | Potency | activity change, negative = inhibition
CC1(C)C(=O)Nc2ccccc2N1C(=O)COC(=O)c1cc([N+](=O)[O-])ccc1N | inconclusive: 31.6 µM [inhibitor, single point] | 
CCn1nc(C(=O)OC(C(=O)c2c[nH]c3ccccc23)c2ccccc2)c2ccccc2c1=O (stereo not given) | inconclusive: 89.1 µM [inhibitor, single point] | 
CCn1ccnc1[C@@H]1C[C@H]2CN(Cc3cccc(Cl)c3)C(=O)[C@]23CCCN13 | inconclusive: 79.4 µM [inhibitor, single point] | 
CCOC(=O)N1CCC(=NNC(=O)NC2CCCCC2)CC1 | inactive | 
O=C(c1ccco1)N1N=C(c2ccc(Cl)cc2)CC1c1ccco1 (stereo not given) | inconclusive: 0.126 µM [inhibitor, full curve, poor fit] | 
COc1cc(C)ccc1S(=O)(=O)N1CCN(C23CC4CC(CC(C4)C2)C3)CC1 | inconclusive: 8.91 µM [inhibitor, full curve, poor fit] | 
COc1ccc(C(=O)C[N+]2(C)CCOCC2)cc1 | inactive | 
COCCCN1C(=O)CC(C(=O)OC)=C1C | inactive | 
Oc1c(C(c2ccccc2)N2CCC3(CC2)OCCO3)sc2nc(-c3ccco3)nn12 (stereo not given) | inactive | 
Cc1cccc(C(C)C)c1NC(=O)COC(=O)c1cccc(S(=O)(=O)N2CCc3ccccc3C2)c1 | inconclusive: 89.1 µM [inhibitor, single point] | 
COc1ccc(-c2nc3c(c(SCC(=O)Nc4ccc(C(=O)O)cc4)n2)Cc2ccccc2O3)cc1 | active: 2.24 µM | 
CC(=O)Nc1sc2c(c1C#N)CCN(Cc1ccccc1)C2 | inactive | 
Cc1ccc(C(C(=O)NCc2ccco2)N(CCc2ccccc2)C(=O)Cn2nnc3ccccc32)o1 (stereo not given) | inconclusive: 89.1 µM [inhibitor, single point] | 
COc1ccc2oc(=O)c(C(=O)NCc3cccnc3)cc2c1 | inactive | 
COc1ccc(-c2nc(CS(=O)(=O)CC(=O)NCc3cccc(Br)c3)c(C)o2)cc1 | inconclusive: 22.4 µM [inhibitor, full curve, poor fit] | 
COc1ccccc1NS(=O)(=O)c1cccc2cccnc12 | inconclusive: 63.1 µM [inhibitor, single point] | 
O=C1C2C3C=CC(CC3)C2C(=O)N1c1nccs1 (stereo not given) | active: 22.4 µM | 
COc1ccc(-c2onc(C)c2-c2cscn2)c(O)c1 | inconclusive: 0.631 µM [inhibitor, full curve, poor fit] | 
CCC(NC(=O)C1CCCO1)c1ccccc1 (stereo not given) | inactive | 
O=C(O)CCc1ccc(-c2cccs2)n1NC(=O)c1ccco1 | inconclusive: 39.8 µM [inhibitor, partial curve] | 
Cc1ccc(CNc2cc(-c3nn4c(C)nnc4s3)ccc2C)s1 | inconclusive: 44.7 µM [inhibitor, partial curve] | 
C/C(=N/NC(=O)CNC(=O)c1cccnc1)c1ccccc1 | inactive | 
CC(C)(C)c1ccc(C(CC(=O)O)NS(=O)(=O)Cc2ccccc2)cc1 (stereo not given) | inconclusive: 89.1 µM [inhibitor, single point] | 

Compound | Potency | activity change, negative = inhibition
Cc1cc(C)c(/C([O-])=C(/C(=S)Nc2ccc(SC(F)F)cc2)[n+]2ccccc2)cc1C | inconclusive: 0.891 µM [inhibitor, full curve, poor fit] | 
Cc1cc(=O)oc2cc(OCC(=O)N3CCOCC3)ccc12 | inconclusive: 89.1 µM [inhibitor, single point] | 
COc1ccc(-c2cc(C(=O)Oc3ccccc3)c3cc(C)ccc3n2)cc1 | inactive | 
Cc1cc2nc(-c3ccc(SCC(=O)N4CCOCC4)nc3)[nH]c2cc1C | inconclusive: 31.6 µM [inhibitor, full curve] | 
c1ccc(CNc2nc(N3CCN(Cc4ccccc4)CC3)nc3ccccc23)cc1 |  | inconclusive: -30.8% [inhibitor]
Cc1ccccc1Cn1c(SCc2ccc(C(=O)NC(C)c3ccccc3)cc2)nc2ccncc21 (stereo not given) | inactive | 
O=C(Cc1ccc(Cl)cc1)Nc1cccc(-c2nnc(-c3ccco3)o2)c1 | inconclusive: 50.1 µM [inhibitor, partial curve] | 
COc1ccccc1C(=O)Nc1ccc(S(=O)(=O)N2CCCC2)cc1 | inconclusive: 100 µM [inhibitor, partial curve, poor fit] | 
O=C(COc1ncnc2sccc12)N1CCN(C(=O)c2ccco2)CC1 | active: 39.8 µM | 
CC(C)(C)NC(=O)C(c1ccc(O)cc1)N(C(=O)Cn1nnc(-c2ccc(F)cc2)n1)c1ccccc1F (stereo not given) | inconclusive: 39.8 µM [inhibitor, single point] | 
CCCNC(=O)Cn1c(=O)n(C)c2ccccc21 | inconclusive: 39.8 µM [inhibitor, single point] | 
CC(=O)c1ccc(NC(=O)CCS(=O)(=O)c2ccc3c(c2)n(C)c(=O)c(=O)n3C)cc1 | inconclusive: 0.316 µM [inhibitor, full curve, poor fit] | 
CCOCCCNC(=O)Cc1c(C(=O)O)[nH]c2ccc(Cl)cc12 | inactive | 
Cc1[nH]c(N=Nc2ccccc2)nc1N=Nc1ccccc1 | inconclusive: 22.4 µM [inhibitor, single point] | 
O=C1NC(=Nc2cccc(O)c2)S/C1=C\c1cccnc1 | inactive | 
COc1ccc(C(c2sc3nc(C)nn3c2O)N2CCN(CCO)CC2)cc1OC (stereo not given) | inconclusive: 89.1 µM [inhibitor, single point] | 
Cc1c(O)ccc2c(=O)c(Oc3ccccc3)coc12 | inconclusive: 89.1 µM [inhibitor, single point] | 
Oc1ccc2ccccc2c1C=Nc1ccc(N2CCOCC2)cc1 | inconclusive: 100 µM [inhibitor, single point] | 
COc1ccc2c(c1)CC1c3c(cc4c(c3-2)OCO4)CC[N+]1(C)[O-] (stereo not given) | inconclusive: 89.1 µM [inhibitor, single point] | 
CC(=O)c1ccc(NC(=O)CSc2ccc(-c3sc(C)nc3C)nn2)cc1 | active: 20 µM | 
COc1ccc(Cl)cc1NC(=O)CN(C)C(=O)C12CC3CC(CC(Cl)(C3)C1)C2 |  | inconclusive: -38% [inhibitor]
CC(CNC(=O)CN1C(=O)COc2ccc(S(=O)(=O)N3CCCCC3)cc21)c1ccccc1 (stereo not given) | inconclusive: 4.47 µM [inhibitor, single point] | 
CC(/C=C/c1ccco1)=N/NC(=O)Cc1cccs1 | active: 22.4 µM | 
COc1ccccc1C(NC(C)=O)c1cc(Cl)c2cccnc2c1O (stereo not given) | inactive | 

Look-ups from the results shown:
In Potency, Cc1c(O)ccc2c(=O)c(Oc3ccccc3)coc12 is entered as inconclusive: 89.1 µM [inhibitor, single point]
In Potency, CC(=O)c1ccc(NC(=O)CCS(=O)(=O)c2ccc3c(c2)n(C)c(=O)c(=O)n3C)cc1 is entered as inconclusive: 0.316 µM [inhibitor, full curve, poor fit]
In Potency, O=C1NC(=Nc2cccc(O)c2)S/C1=C\c1cccnc1 is entered as inactive
In Potency, CC(=O)c1ccc(NC(=O)CSc2ccc(-c3sc(C)nc3C)nn2)cc1 is entered as active: 20 µM
In Potency, Cc1cc(=O)oc2cc(OCC(=O)N3CCOCC3)ccc12 is entered as inconclusive: 89.1 µM [inhibitor, single point]
In Potency, O=C(Cc1ccc(Cl)cc1)Nc1cccc(-c2nnc(-c3ccco3)o2)c1 is entered as inconclusive: 50.1 µM [inhibitor, partial curve]

The list continues.

Compound | Potency | activity change, negative = inhibition
CC(=O)N(c1ccc(Cl)cc1)c1cn(C(C)=O)c2ccccc12 | inactive | 
Cc1ccc2nc(CN3CCN(C(=O)Nc4cccc(C)c4C)CC3)oc2c1 | inactive | 
COc1ccc(NC(=O)CN2C(=O)CC(c3ccco3)Sc3ccccc32)cc1OC (stereo not given) | inconclusive: 1 µM [inhibitor, partial curve] | 
CCOC(=O)c1[nH]c2ccccc2c1NC(=S)Nc1ccccc1C | inconclusive: 100 µM [inhibitor, single point] | 
CCS(=O)(=O)c1ncc(N(Cc2cccc(F)c2)Cc2ccco2)c(C(=O)Nc2ccccc2Cl)n1 | inactive | 
Cc1ccc(NC(=O)c2ccc(CNS(=O)(=O)c3cccc(C(F)(F)F)c3)cc2)cc1 | inconclusive: 11.2 µM [inhibitor, full curve, poor fit] | 
CS(=O)(=O)N(CC(=O)NCC1CCCO1)c1cccc(Cl)c1 (stereo not given) | inactive | 
Cc1cc(C)c2c(n1)nn1c(NCCCn3ccnc3)cc(C)nc21 | inconclusive: 89.1 µM [inhibitor, single point] | 
COc1ccc(C(=O)N/C(N)=N/c2nc3ccccc3o2)cc1 | inconclusive: 50.1 µM [inhibitor, partial curve] | 
Cc1cc(C)c(S(=O)(=O)Nc2nnc(C(C)C)s2)c(C)c1 | inactive | 
CCOCCCNC(=O)C(NC(=O)c1cnccn1)c1ccc(C)cc1 (stereo not given) | inconclusive: 3.55 µM [inhibitor, full curve] | 
Oc1ccc(/C=N/Nc2nn3cnnc3c3ccccc23)cc1 |  | inconclusive: -39.8% [inhibitor]
Cc1ccc(NC(=S)N(CCN2CCCCC2)Cc2ccco2)cc1Cl |  | inconclusive: -32.4% [inhibitor]
CCOc1ccccc1NC(=O)CCNS(=O)(=O)c1ccc2c(c1)CCN2C(=O)C1CC1 | inactive | 
Cc1cccc(N(CC(=O)NCCSCc2ccco2)S(=O)(=O)c2ccccc2)c1 | inconclusive: 44.7 µM [inhibitor, partial curve] | 
O=C(NCc1ccco1)c1ccccc1NS(=O)(=O)c1ccc(Br)s1 | inconclusive: 20 µM [inhibitor, single point] | 
CCOc1ccccc1NC(=S)NC(=O)c1ccco1 | inconclusive: 0.794 µM [inhibitor, full curve, poor fit] | 
COc1ccc(NC(=O)Nc2cccs2)cn1 | inactive | 
CCC1=C2CC[C@H]3C(=O)N(c4ccccc4)C(=O)[C@H]3[C@H]2[C@@]2(C)C(=NCC(=O)OC)OC(=O)N2C1=O | inconclusive: 89.1 µM [inhibitor, single point] | 
O=C(Cc1ccc(Cl)cc1)NCC(c1cccs1)S(=O)(=O)c1ccc(Cl)cc1 (stereo not given) | inconclusive: 39.8 µM [inhibitor, single point] | 
CN(C)c1ccc(N=C/C=C2/N(C)c3ccccc3C2(C)C)cc1 | inconclusive: 100 µM [inhibitor, single point] | 
CC12CCCc3c(O)cc(=O)n(c31)-c1ccccc12 (stereo not given) | inconclusive: 89.1 µM [inhibitor, single point] | 
